Source: PubChem BioAssay AID1053208 (Peter MacCallum Cancer Centre, 2014)

Test: 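Find knock-downs that sensitise mouse osteosarcoma cells to doxorubicin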 (primary screen)
Cells: mouse osteosarcoma cells, early-passage culture from an engineered mouse model of fibroblastic bone tumour
Reagents: siRNA pool against mouse genes, 40 nM
Time to read-out: about 120 h (48 h before drug, then 72 h with drug)
Treatment: doxorubicin 100 nM for 72 h, roughly 30-40% inhibitory dose
Measured: 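Viability read as ATP luminescence after 72 h of 100 nM doxorubicin or none, duplicate wells averaged, scaled to non-targeting siRNA, then expressed as robust z-scores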
Scale: viability z-score with doxorubicin: higher = more viable cells under doxorubicin; viability z-score without drug: higher = more viable cells with knock-down alone
Rule for the call: 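a pool counts as active when its viability z-score with doxorubicin is -2 or below and its z-score without drug lies between -2 and 2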
This is an unselected part of about 17,000 reagents tested. Of all reagents, 788 (4.7%) are marked active. 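Calls rest on z-score classes alone; an extra cut-off of viability at most 70% of control was not applied to them.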 Unmarked entries are inactive. Not all columns of the deposit are shown.

{"Gene": "Retsat", "combined z-score class": "no change with or without drug", "viability z-score with doxorubicin": 1.57, "viability z-score without drug": 0.84}
{"Gene": "Vac14", "combined z-score class": "no change with or without drug", "viability z-score with doxorubicin": 1.12, "viability z-score without drug": 1.52}
{"Gene": "A930012M17", "combined z-score class": "no change with or without drug", "viability z-score with doxorubicin": 0.22, "viability z-score without drug": -1.18}
{"Gene": "Ccdc74a", "combined z-score class": "no change with or without drug", "viability z-score with doxorubicin": 0.45, "viability z-score without drug": 0}
{"Gene": "Dusp28", "combined z-score class": "no change with or without drug", "viability z-score with doxorubicin": 0, "viability z-score without drug": -1.01}
{"Gene": "Cd2", "combined z-score class": "high cell count without drug only", "viability z-score with doxorubicin": 1.12, "viability z-score without drug": 2.36}
{"Gene": "Or1e1f", "combined z-score class": "no change with or without drug", "viability z-score with doxorubicin": 0.22, "viability z-score without drug": 0.84}
{"Gene": "Vmn1r22", "combined z-score class": "no change with or without drug", "viability z-score with doxorubicin": 0.22, "viability z-score without drug": 0}
{"Gene": "Prkab2", "combined z-score class": "high cell count with and without drug", "viability z-score with doxorubicin": 2.02, "viability z-score without drug": 2.53}
{"Gene": "H2-M10.1", "combined z-score class": "no change with or without drug", "viability z-score with doxorubicin": 0.22, "viability z-score without drug": -1.35}
{"Gene": "Vmn1r220", "combined z-score class": "high cell count with and without drug", "viability z-score with doxorubicin": 3.93, "viability z-score without drug": 2.87}
{"Gene": "Pdgfra", "combined z-score class": "no change with or without drug", "viability z-score with doxorubicin": 1.8, "viability z-score without drug": 0.84}
{"Gene": "P3h1", "combined z-score class": "no change with or without drug", "viability z-score with doxorubicin": 0.22, "viability z-score without drug": -1.01}
{"Gene": "Pnma2", "combined z-score class": "high cell count without drug only", "viability z-score with doxorubicin": 1.12, "viability z-score without drug": 2.53}
{"Gene": "Vmn1r211", "combined z-score class": "no change with or without drug", "viability z-score with doxorubicin": 0.45, "viability z-score without drug": 0.17}
{"Gene": "Defb1", "combined z-score class": "no change with or without drug", "viability z-score with doxorubicin": 0.22, "viability z-score without drug": 0.17}
{"Gene": "Rnasek", "combined z-score class": "no change with or without drug", "viability z-score with doxorubicin": 0.45, "viability z-score without drug": 1.85}
{"Gene": "Slc12a7", "combined z-score class": "no change with or without drug", "viability z-score with doxorubicin": 0.9, "viability z-score without drug": 1.18}
{"Gene": "Lyn", "combined z-score class": "no change with or without drug", "viability z-score with doxorubicin": 0.34, "viability z-score without drug": 1.85}
{"Gene": "NALP6", "combined z-score class": "high cell count without drug only", "viability z-score with doxorubicin": 1.12, "viability z-score without drug": 2.36}
{"Gene": "Nudcd3", "combined z-score class": "no change with or without drug", "viability z-score with doxorubicin": 0.79, "viability z-score without drug": 1.35}
{"Gene": "Bard1", "combined z-score class": "no change with or without drug", "viability z-score with doxorubicin": -0.34, "viability z-score without drug": -0.17}
{"Gene": "Emc8", "combined z-score class": "no change with or without drug", "viability z-score with doxorubicin": 0.56, "viability z-score without drug": 0.34}
{"Gene": "Ap2s1", "combined z-score class": "no change with or without drug", "viability z-score with doxorubicin": 0.9, "viability z-score without drug": 0.17}
{"Gene": "Nckipsd", "combined z-score class": "no change with or without drug", "viability z-score with doxorubicin": 0.67, "viability z-score without drug": -0.51}
{"Gene": "Tmc1", "combined z-score class": "no change with or without drug", "viability z-score with doxorubicin": 0.34, "viability z-score without drug": -0.51}
{"Gene": "Cert1", "combined z-score class": "low cell count with doxorubicin only (active)", "viability z-score with doxorubicin": -2.02, "viability z-score without drug": -1.52}
{"Gene": "Spata33", "combined z-score class": "no change with or without drug", "viability z-score with doxorubicin": 0.11, "viability z-score without drug": -0.17}

2 entries from above in another layout:
Gene,combined z-score class,viability z-score with doxorubicin,viability z-score without drug
Vmn1r211,no change with or without drug,0.45,0.17
Defb1,no change with or without drug,0.22,0.17
